These are yes or no findings as the source states them, for the method shown. Binding seen in cells or lysates may run through a third protein. Some binding calls cover weakened binding; strength is not graded here. Sequences can lack the tags named with a protein. Each block holds one binder with its values, some of them ahead of it.
What was measured:
Test in all cases: anti-FLAG co-IP, LC-MS/MS
[1] = molecular target: T1, Spc72 (Saccharomyces cerevisiae) (UniProt P39723)
T1 sequence (looked up): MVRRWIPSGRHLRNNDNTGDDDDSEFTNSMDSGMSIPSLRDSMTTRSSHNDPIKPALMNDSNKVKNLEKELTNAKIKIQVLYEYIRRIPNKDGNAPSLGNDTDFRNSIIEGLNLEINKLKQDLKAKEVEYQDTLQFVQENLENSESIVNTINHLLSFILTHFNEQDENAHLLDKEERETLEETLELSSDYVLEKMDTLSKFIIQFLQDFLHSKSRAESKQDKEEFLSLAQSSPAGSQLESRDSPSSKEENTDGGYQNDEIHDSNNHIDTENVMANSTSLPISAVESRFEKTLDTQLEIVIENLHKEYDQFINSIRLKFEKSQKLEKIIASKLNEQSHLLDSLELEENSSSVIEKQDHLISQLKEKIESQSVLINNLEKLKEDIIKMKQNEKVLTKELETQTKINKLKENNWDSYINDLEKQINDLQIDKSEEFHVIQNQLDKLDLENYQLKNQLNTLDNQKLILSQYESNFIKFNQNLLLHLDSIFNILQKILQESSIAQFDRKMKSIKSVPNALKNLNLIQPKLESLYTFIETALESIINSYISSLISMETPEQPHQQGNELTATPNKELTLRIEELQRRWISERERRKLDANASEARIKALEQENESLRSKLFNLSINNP

[2] = molecular target: T2, Smc1 (Saccharomyces cerevisiae) (UniProt P32908)
T2 sequence (looked up): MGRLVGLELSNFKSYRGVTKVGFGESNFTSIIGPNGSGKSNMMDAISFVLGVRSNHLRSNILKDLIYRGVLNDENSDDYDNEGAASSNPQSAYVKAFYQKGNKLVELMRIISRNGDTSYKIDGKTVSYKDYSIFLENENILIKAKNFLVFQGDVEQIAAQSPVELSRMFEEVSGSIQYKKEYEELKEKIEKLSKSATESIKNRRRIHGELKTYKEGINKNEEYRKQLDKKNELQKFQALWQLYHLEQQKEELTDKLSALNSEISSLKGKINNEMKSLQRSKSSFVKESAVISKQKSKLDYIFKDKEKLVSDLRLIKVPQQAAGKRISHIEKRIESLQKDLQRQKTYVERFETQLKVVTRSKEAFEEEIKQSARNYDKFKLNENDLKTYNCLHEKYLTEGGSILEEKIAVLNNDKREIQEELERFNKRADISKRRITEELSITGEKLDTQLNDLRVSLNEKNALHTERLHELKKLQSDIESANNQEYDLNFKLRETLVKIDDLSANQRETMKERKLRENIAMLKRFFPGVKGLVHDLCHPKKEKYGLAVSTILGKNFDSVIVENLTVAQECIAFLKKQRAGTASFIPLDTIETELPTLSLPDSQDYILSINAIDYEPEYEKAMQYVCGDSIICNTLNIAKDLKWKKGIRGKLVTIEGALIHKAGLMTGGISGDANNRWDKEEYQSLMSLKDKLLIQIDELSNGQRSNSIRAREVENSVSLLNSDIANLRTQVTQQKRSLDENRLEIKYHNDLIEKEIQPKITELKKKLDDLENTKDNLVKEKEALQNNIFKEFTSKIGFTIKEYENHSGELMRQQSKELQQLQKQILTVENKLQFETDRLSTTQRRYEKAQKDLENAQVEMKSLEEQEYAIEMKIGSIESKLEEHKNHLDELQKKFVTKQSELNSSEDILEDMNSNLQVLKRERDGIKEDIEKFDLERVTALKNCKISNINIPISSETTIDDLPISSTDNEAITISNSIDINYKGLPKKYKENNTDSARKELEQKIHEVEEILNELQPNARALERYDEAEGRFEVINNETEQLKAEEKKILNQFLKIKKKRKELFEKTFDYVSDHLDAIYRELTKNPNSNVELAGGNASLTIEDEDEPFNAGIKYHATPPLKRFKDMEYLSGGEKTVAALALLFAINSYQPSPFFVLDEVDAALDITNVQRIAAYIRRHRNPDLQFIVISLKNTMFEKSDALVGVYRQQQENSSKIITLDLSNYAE

[3] = molecular target: T3, Dig2/Rst2 (Saccharomyces cerevisiae) (UniProt Q03373)
T3 sequence (looked up): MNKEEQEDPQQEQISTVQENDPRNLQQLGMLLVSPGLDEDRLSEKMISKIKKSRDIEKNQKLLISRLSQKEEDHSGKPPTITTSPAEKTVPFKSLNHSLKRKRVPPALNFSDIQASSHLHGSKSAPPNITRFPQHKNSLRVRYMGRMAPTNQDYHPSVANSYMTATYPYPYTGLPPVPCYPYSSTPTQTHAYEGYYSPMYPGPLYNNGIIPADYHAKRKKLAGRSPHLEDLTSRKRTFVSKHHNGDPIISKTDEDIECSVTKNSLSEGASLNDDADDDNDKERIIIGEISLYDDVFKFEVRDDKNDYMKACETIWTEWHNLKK

[4] = molecular target: T4, Bck2 (Saccharomyces cerevisiae) (UniProt P33306)
T4 sequence (looked up): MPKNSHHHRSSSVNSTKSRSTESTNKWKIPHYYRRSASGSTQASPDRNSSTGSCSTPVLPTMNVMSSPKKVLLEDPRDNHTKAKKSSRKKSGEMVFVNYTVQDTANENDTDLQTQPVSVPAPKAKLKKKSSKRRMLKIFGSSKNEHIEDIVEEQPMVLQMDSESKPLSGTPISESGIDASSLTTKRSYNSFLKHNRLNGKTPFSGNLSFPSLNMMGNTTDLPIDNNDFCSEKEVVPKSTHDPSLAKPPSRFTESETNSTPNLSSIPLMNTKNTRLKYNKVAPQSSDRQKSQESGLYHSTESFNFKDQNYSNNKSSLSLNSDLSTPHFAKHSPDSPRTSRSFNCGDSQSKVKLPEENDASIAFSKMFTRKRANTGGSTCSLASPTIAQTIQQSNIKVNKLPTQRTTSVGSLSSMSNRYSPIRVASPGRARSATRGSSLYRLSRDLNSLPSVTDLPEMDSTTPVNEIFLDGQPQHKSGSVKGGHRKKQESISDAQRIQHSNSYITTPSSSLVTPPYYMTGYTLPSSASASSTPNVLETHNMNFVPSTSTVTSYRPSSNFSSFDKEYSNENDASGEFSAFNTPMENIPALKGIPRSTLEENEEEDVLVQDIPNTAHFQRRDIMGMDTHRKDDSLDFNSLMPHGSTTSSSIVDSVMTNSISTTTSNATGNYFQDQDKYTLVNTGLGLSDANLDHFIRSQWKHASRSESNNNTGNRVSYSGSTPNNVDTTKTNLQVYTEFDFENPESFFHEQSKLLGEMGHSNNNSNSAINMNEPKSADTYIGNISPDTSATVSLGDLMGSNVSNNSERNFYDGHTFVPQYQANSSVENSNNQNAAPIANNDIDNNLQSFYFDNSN

binding [1]: binds | binding [2]: binds
B1: Cdc5 (protein, Saccharomyces cerevisiae, UniProt P32562 1-705, looked up)
chain: MSLGPLKAINDKQLNTRSKLVHTPIKGNTADLVGKENHFKQTKRLDPNNDHHHQPAQKKKREKLSALCKTPPSLIKTRGKDYHRGHFLGEGGFARCFQIKDDSGEIFAAKTVAKASIKSEKTRKKLLSEIQIHKSMSHPNIVQFIDCFEDDSNVYILLEICPNGSLMELLKRRKVLTEPEVRFFTTQICGAIKYMHSRRVIHRDLKLGNIFFDSNYNLKIGDFGLAAVLANESERKYTICGTPNYIAPEVLMGKHSGHSFEVDIWSLGVMLYALLIGKPPFQARDVNTIYERIKCRDFSFPRDKPISDEGKILIRDILSLDPIERPSLTEIMDYVWFRGTFPPSIPSTVMSEAPNFEDIPEEQSLVNFKDCMEKSLLLESMSSDKIQRQKRDYISSIKSSIDKLEEYHQNRPFLPHSLSPGGTKQKYKEVVDIEAQRRLNDLAREARIRRAQQAVLRKELIATSTNVIKSEISLRILASECHLTLNGIVEAEAQYKMGGLPKSRLPKIKHPMIVTKWVDYSNKHGFSYQLSTEDIGVLFNNGTTVLRLADAEEFWYISYDDREGWVASHYLLSEKPRELSRHLEVVDFFAKYMKANLSRVSTFGREEYHKDDVFLRRYTRYKPFVMFELSDGTFQFNFKDHHKMAISDGGKLVTYISPSHESTTYPLVEVLKYGEIPGYPESNFREKLTLIKEGLKQKSTIVTVD

binding [3]: binds | binding [4]: binds
B2: Kss1 (protein, Saccharomyces cerevisiae, UniProt P14681 1-368, looked up)
chain: MARTITFDIPSQYKLVDLIGEGAYGTVCSAIHKPSGIKVAIKKIQPFSKKLFVTRTIREIKLLRYFHEHENIISILDKVRPVSIDKLNAVYLVEELMETDLQKVINNQNSGFSTLSDDHVQYFTYQILRALKSIHSAQVIHRDIKPSNLLLNSNCDLKVCDFGLARCLASSSDSRETLVGFMTEYVATRWYRAPEIMLTFQEYTTAMDIWSCGCILAEMVSGKPLFPGRDYHHQLWLILEVLGTPSFEDFNQIKSKRAKEYIANLPMRPPLPWETVWSKTDLNPDMIDLLDKMLQFNPDKRISAAEALRHPYLAMYHDPSDEPEYPPLNLDDEFWKLDNKIMRPEEEEEVPIEMLKDMLYDELMKTME

Source: patent US20030162221A1
